Laboratory results taken from article PMC7819943, “Rice protein-binding microarrays: a tool to detect cis-acting elements near promoter regions in rice”.
This is one part of the list.

By UniProt entry, the sequences of proteins in these tests, tags left out.
UniProt Q0JBA9, entry or part of it: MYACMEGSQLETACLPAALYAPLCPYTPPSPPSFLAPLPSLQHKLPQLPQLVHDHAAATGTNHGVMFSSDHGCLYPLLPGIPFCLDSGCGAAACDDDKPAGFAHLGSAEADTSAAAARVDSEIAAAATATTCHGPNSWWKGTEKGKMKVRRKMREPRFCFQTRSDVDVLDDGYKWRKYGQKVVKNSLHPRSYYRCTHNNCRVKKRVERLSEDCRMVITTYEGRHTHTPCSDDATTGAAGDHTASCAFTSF

target: OsWRKY34 (Oryza sativa, UniProt Q0JBA9 1-250); experiment: protein-binding microarray (RPBM); PBS, 2% BSA, 51.3 ng/ul salmon testes DNA, 50 uM zinc acetate, 200 nM TF, 25 C, 1 h; high values mean tight binding; details: protein: recombinant; tags: N-terminal polyhistidine and DsRed monomer fusion (pET32a); label: CyDye5-dUTP incorporated in the synthesized complementary strand; 3' TTTTT single-stranded linker to array surface; dsDNA, one strand shown
Method in brief: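 The binding signal is fluorescence intensity per feature, in arbitrary units, read on an Axon 4000B scanner. Polyhistidine- and DsRed-tagged transcription factors (N-terminal fusions) from E. coli BL21-CodonPlus were purified on Ni–NTA and applied at 200 nM for 1 h at 25 °C to a double-stranded, BSA-blocked custom Agilent array in buffer with 50 µM zinc acetate.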

**Q.** “CATCGCCGTCGCCTCTGCCTCCGCCTGGAAGGATGACCTCCGGAGTCACCTAGTGCAG” was tested. Which binding signal did it give?
**A.** 8610 fluorescence intensity (a.u.)

**Q.** For “GAACCCTGTATACATTAGCTAGTACATAACATACCTTCATCGGAGTCACCTAGTGCAG”, which binding signal is on record?
**A.** 8250 fluorescence intensity (a.u.)

**Q.** With “CGGAGTGTTTTTAGCTTCCTCTCCAATCTCTGTATTTCTTCGGAGTCACCTAGTGCAG” as the sequence, how does the binding signal read?
**A.** 10300 fluorescence intensity (a.u.)

**Q.** How did the binding signal turn out when “CCTGACTTCCTACACCTCTGTATTGGAACTATTACGACCACGGAGTCACCTAGTGCAG” was run?
**A.** 8040 fluorescence intensity (a.u.)

**Q.** Which binding signal does the source give for “ATTCTCTACTGTAATTCACATGCTAATCTTCCAGCCACACCGGAGTCACCTAGTGCAG” here?
**A.** 9280 fluorescence intensity (a.u.)

**Q.** Which binding signal does the source give for “AGTAGTATAGGAGGTAGTAGTAGTAGTAGTAGTAGGTACTCGGAGTCACCTAGTGCAG” here?
**A.** 8610 fluorescence intensity (a.u.)

**Q.** With “GCAAAATCCTCCTCCCGATCTCCACCACCACTTTCCCATTCGGAGTCACCTAGTGCAG” as the sequence, how does the binding signal read?
**A.** 8740 fluorescence intensity (a.u.)

**Q.** Which binding signal does the source give for “AATTATTTAATTTCTCGGTGGCTCGCATTTCCACTCTCTCCGGAGTCACCTAGTGCAG” here?
**A.** 12000 fluorescence intensity (a.u.)

**Q.** For “AGCAGCATTTCCACTCACTTTTCCGGTTTCCATCGCCCGCCGGAGTCACCTAGTGCAG”, which binding signal is on record?
**A.** 10600 fluorescence intensity (a.u.)

**Q.** With “TCGCCGGATTTTTTTTTCTCCCGATCGGTGGGGAGGGCTCCGGAGTCACCTAGTGCAG” as the sequence, how does the binding signal read?
**A.** 11200 fluorescence intensity (a.u.)

**Q.** “ATTTTATAGGTTTGTAGTATATGTTCTGTTGAAGTTGAACCGGAGTCACCTAGTGCAG” was tested. Which binding signal did it give?
**A.** 9740 fluorescence intensity (a.u.)

**Q.** With “GCAAGGTCTCTTTCACCAAGTTCTGTACTGTTTATTTTTCCGGAGTCACCTAGTGCAG” as the sequence, how does the binding signal read?
**A.** 10800 fluorescence intensity (a.u.)

**Q.** For “AGTTTCTATTATTTTAGGGTGGTGCTCTATGCTTTTCTCACGGAGTCACCTAGTGCAG”, which binding signal is on record?
**A.** 8740 fluorescence intensity (a.u.)

**Q.** With “AGTATCCTTCTCATATCATTTGTTTCTACCTAGGCTTTTGCGGAGTCACCTAGTGCAG” as the sequence, how does the binding signal read?
**A.** 9980 fluorescence intensity (a.u.)

**Q.** For “GCCCGATCAGCTATTGGTCATTTAACTCTGTTTCCTTTATCGGAGTCACCTAGTGCAG”, which binding signal is on record?
**A.** 13200 fluorescence intensity (a.u.)

**Q.** “TATCTGTCAGCAATGTTTCGTCCGTTGGATGTTGATCCCACGGAGTCACCTAGTGCAG” was tested. Which binding signal did it give?
**A.** 8050 fluorescence intensity (a.u.)

**Q.** For “TATGCGCTCCCAACTTCCATGTGTCCATGTCCATGTCGCGCGGAGTCACCTAGTGCAG”, which binding signal is on record?
**A.** 9530 fluorescence intensity (a.u.)

**Q.** How did the binding signal turn out when “GCATCCTGTACTTTCAATTTTTCCTGTGTCATCCAATAAACGGAGTCACCTAGTGCAG” was run?
**A.** 8100 fluorescence intensity (a.u.)

**Q.** “TTCCATGACTGTTTTGTTCAAGTTAGTTTCCTTCATCCATCGGAGTCACCTAGTGCAG” was tested. Which binding signal did it give?
**A.** 8400 fluorescence intensity (a.u.)

**Q.** With “GCTCGGTGTTGCCCCACTATACGAGGGTATTGTCTCATCGCGGAGTCACCTAGTGCAG” as the sequence, how does the binding signal read?
**A.** 8070 fluorescence intensity (a.u.)

**Q.** “TCCCTGTCGCCTCACTGTTTCACGCGTCCTGGAAGCAAGCCGGAGTCACCTAGTGCAG” was tested. Which binding signal did it give?
**A.** 8790 fluorescence intensity (a.u.)

**Q.** Which binding signal does the source give for “GGCCCATTATTTATCTCACTCTCTTTCTAGCTCGGTTTATCGGAGTCACCTAGTGCAG” here?
**A.** 15000 fluorescence intensity (a.u.)

**Q.** With “CCCCACGTGGTCCTCGCGCCCATTATCCGGGCCCACACGTCGGAGTCACCTAGTGCAG” as the sequence, how does the binding signal read?
**A.** 9920 fluorescence intensity (a.u.)

**Q.** With “AACTGTACAATTGTTTTTTTTCACATTTAATGTTCCATACCGGAGTCACCTAGTGCAG” as the sequence, how does the binding signal read?
**A.** 11400 fluorescence intensity (a.u.)

**Q.** For “CCATTGGATGTTAGCCTCTTACCTTGCACGCAACTTGTTTCGGAGTCACCTAGTGCAG”, which binding signal is on record?
**A.** 9010 fluorescence intensity (a.u.)

**Q.** With “TTGACCTGCTAGCCTTTTTTTTTTCGCAAATCTATTCCTGCGGAGTCACCTAGTGCAG” as the sequence, how does the binding signal read?
**A.** 8440 fluorescence intensity (a.u.)

**Q.** “GGCTATACTGTTAAACTTGCTCTTTGCTCCTGTAATATCACGGAGTCACCTAGTGCAG” was tested. Which binding signal did it give?
**A.** 8980 fluorescence intensity (a.u.)

**Q.** Which binding signal does the source give for “ATATTCTAATACTACACTCGGTTTTAGCTCTCGAAATCAGCGGAGTCACCTAGTGCAG” here?
**A.** 10000 fluorescence intensity (a.u.)

**Q.** “CGTGTGGTTTGCTTTTTTTTTTCCCGACTATGGTCTTCCACGGAGTCACCTAGTGCAG” was tested. Which binding signal did it give?
**A.** 14600 fluorescence intensity (a.u.)

**Q.** With “GTTTTATTGTCACCCATTCCCCGATTCTTTTGTCAAATTTCGGAGTCACCTAGTGCAG” as the sequence, how does the binding signal read?
**A.** 11000 fluorescence intensity (a.u.)

**Q.** With “CACTTCACTTTTCTTCTGTCCCCTTTTTCCAGTTGTAGCACGGAGTCACCTAGTGCAG” as the sequence, how does the binding signal read?
**A.** 9230 fluorescence intensity (a.u.)

**Q.** How did the binding signal turn out when “GAATTATTGATATATTTGTAGCTTATTGTTTCTTTGTTTACGGAGTCACCTAGTGCAG” was run?
**A.** 8570 fluorescence intensity (a.u.)

**Q.** Which binding signal does the source give for “CTCATCGCTTTGTTCTCATCCCTTGTCGATTTTCTTTGACCGGAGTCACCTAGTGCAG” here?
**A.** 16000 fluorescence intensity (a.u.)

**Q.** How did the binding signal turn out when “TTAACTTTTTAGTACGTGTTTGACCATTCGTATTATTCAACGGAGTCACCTAGTGCAG” was run?
**A.** 9020 fluorescence intensity (a.u.)

**Q.** Which binding signal does the source give for “ATGCTTCACAATCCTGAATGGATAATTTGTTTGTATGTGTCGGAGTCACCTAGTGCAG” here?
**A.** 8540 fluorescence intensity (a.u.)

**Q.** For “CGGAGAGGGAGGGGAGCTAGGGTTTTTCGGGGCGGGGATGCGGAGTCACCTAGTGCAG”, which binding signal is on record?
**A.** 27600 fluorescence intensity (a.u.)

**Q.** For “ACTGATGCTTCCTACCCTGTTTAACTCACGAGACCATGAACGGAGTCACCTAGTGCAG”, which binding signal is on record?
**A.** 8770 fluorescence intensity (a.u.)

**Q.** “ATCAATCACTACTGCATATTACTATAATCTCCTCTATACTCGGAGTCACCTAGTGCAG” was tested. Which binding signal did it give?
**A.** 14400 fluorescence intensity (a.u.)

**Q.** Which binding signal does the source give for “AGTATGAATTCGATCTCCATTCCGCTATACAAAAATTCTTCGGAGTCACCTAGTGCAG” here?
**A.** 8280 fluorescence intensity (a.u.)

**Q.** “CTGACTTGGTTTCCATGCAGCACAATTTAGTTTCAGCTTGCGGAGTCACCTAGTGCAG” was tested. Which binding signal did it give?
**A.** 8420 fluorescence intensity (a.u.)

**Q.** For “CTAGGCTCCGAGGGAGTACTTTTTTTTTTTTTACCTGCTTCGGAGTCACCTAGTGCAG”, which binding signal is on record?
**A.** 8200 fluorescence intensity (a.u.)

**Q.** How did the binding signal turn out when “AATACTCCCGTAATAAAATGTATTGACTTTGGTCAAAGTCCGGAGTCACCTAGTGCAG” was run?
**A.** 9340 fluorescence intensity (a.u.)
